# PubChem BioAssay AID504791 – Drosophila RNAi Screening Center | 2011
# Aim: 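Genes of the fly required for silencing by miRNA, siRNA or endo-siRNA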 (primary screen)
# Cells: Drosophila S2-derived reporter cells
# Reagents: long dsRNA against Drosophila genes, about 150-250 ng dsRNA per well (siRNA assay); about 80-120 ng (miRNA assay)
# Duration: about 5 days (siRNA assay); about 4 days (miRNA assay)
# Challenge: copper sulfate induction of reporters: 25 µM (siRNA assay); 200 mM stated (miRNA assay), 1-2 days before reading
# Measured: 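Per-well ratio of Renilla over firefly light, expressed relative to that plate's average ratio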
# Reading the numbers: siRNA reporter hit score: higher = 3 marks a strong hit with raised ratio; -3 a strong hit with lowered ratio
# Call rule: 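First-pass picks had plate-scaled ratios over 1.5 for the siRNA assay, over 1.6 for the miRNA assay, or under 0.6; two distinct dsRNAs had to score alike on retest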
# In all, the deposit lists about 23,000 reagents; shown is a random part of those that have a named target and a result. Of all reagents, 199 (0.86%) are marked active. 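Plate-scaled ratios behind the calls are not deposited; printed light signals are raw; many rows marked increased or decreased are still called inactive.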
gene,dsRNA,siRNA reporter hit score,stable siRNA reporter change,miRNA reporter change,"stable assay Renilla, run 1 (luminescence)","stable assay firefly, run 1 (luminescence)",activity call
kn (knot),DRSC05505,,,,6520,3.98e5,inactive
kn (knot),DRSC05507,,,,6626,4.92e5,inactive
kn (knot),DRSC06196,,,,7390,3.58e5,inactive
kn (knot),DRSC07637,,,,7056,4.34e5,inactive
kn (knot),DRSC21533,,,,8390,4.15e5,inactive
Polr1E (RNA polymerase I subunit E),DRSC14506,,,,6446,3.11e5,inactive
Polr1E (RNA polymerase I subunit E),DRSC15358,,,,10030,4.30e5,inactive
CG7607,DRSC10889,,,,6228,4.30e5,inactive
v (vermilion),DRSC20383,,,,7818,5.80e5,inactive
Naa40 (N(alpha)-acetyltransferase 40),DRSC16265,,,,6491,3.73e5,inactive
Yeti,DRSC21138,,,reporter ratio raised past the hit cutoff,8462,4.84e5,inactive
CG12486 (retired record),DRSC09888,,,,8158,3.15e5,inactive
Mocs1 (Molybdenum cofactor synthesis 1),DRSC11225,,,,4840,3.41e5,inactive
CG16721,DRSC18113,,,,10079,7.99e5,inactive
"betaNACtes6 (Nascent-associated complex beta-subunit-like, testis 6)",DRSC22925,,,,5336,4.09e5,inactive
TwdlG (TweedleG),DRSC12229,,,,7008,3.39e5,inactive
CG12539,DRSC19470,,,,5686,3.51e5,inactive
igl (igloo),DRSC07631,,,,15982,5.66e5,inactive
CG30274,DRSC04171,,,,6047,3.49e5,inactive
MAPk-Ak2 (MAP kinase activated protein-kinase-2),DRSC18678,,,,4928,3.65e5,inactive
CG15905,DRSC06591,,,,6875,3.93e5,inactive
Edg91 (Ecdysone-dependent gene 91),DRSC16657,,,,6236,4.02e5,inactive
CG10405,DRSC14238,,,,7256,3.97e5,inactive
Klp61F (Kinesin-like protein at 61F),DRSC08671,,,,7299,2.89e5,inactive
CG5174,DRSC06920,,,,9358,3.66e5,inactive
Tbc1d22 (TBC1 domain family member 22),DRSC15867,,,,7859,2.51e5,inactive
nrv3 (nervana 3),DRSC03097,,,,2515,3.16e5,inactive
upd3 (unpaired 3),DRSC19636,,,,4023,2.65e5,inactive
upd3 (unpaired 3),DRSC19968,,,,3716,2.55e5,inactive
upd3 (unpaired 3),DRSC22169,,,,8392,4.12e5,inactive
CG42402,DRSC21116,,,,5767,3.51e5,inactive
DNAlig3 (DNA ligase 3),DRSC15201,,,,7906,3.78e5,inactive
stwl (stonewall),DRSC11400,,,,6896,2.52e5,inactive
vn (vein),DRSC11408,,,,6042,2.87e5,inactive
vn (vein),DRSC23221,,,,4731,3.07e5,inactive
Gr98c (Gustatory receptor 98c),DRSC22212,,,,9110,6.54e5,inactive
Osi1 (Osiris 1),DRSC12271,,,,6231,3.65e5,inactive
Glut1 (Glucose transporter 1),DRSC07927,,,,6562,5.09e5,inactive
Glut1 (Glucose transporter 1),DRSC08662,,,,9137,3.63e5,inactive
CG17272,DRSC15211,,,,7527,4.21e5,inactive
CG11350,DRSC08181,,,,4363,4.30e5,inactive
bwa (brain washing),DRSC01749,,,,6279,4.86e5,inactive
bwa (brain washing),DRSC02310,,,,6027,4.24e5,inactive
Rbf2 (Retinoblastoma-family protein 2),DRSC16816,,,,7597,3.57e5,inactive
slmb (supernumerary limbs),DRSC17056,,,,10084,5.11e5,inactive
Pez,DRSC03397,,,,8061,4.23e5,inactive
CG31556 (retired record),DRSC12122,,,,5946,3.40e5,inactive
CG31556 (retired record),DRSC22177,,,,8972,4.90e5,inactive
Pdk1 (Phosphoinositide-dependent kinase 1),DRSC08682,,,reporter ratio lowered past the hit cutoff,5131,3.90e5,inactive
Pdk1 (Phosphoinositide-dependent kinase 1),DRSC27069,,,reporter ratio lowered past the hit cutoff,,,inactive
Sf3b1 (Splicing factor 3b subunit 1),DRSC00535,3,,reporter ratio lowered past the hit cutoff,7751,5.66e5,active
CG3191,DRSC18530,,,,3331,3.41e5,inactive
CG10300,DRSC14225,,,,6191,2.81e5,inactive
Obp85a (Odorant-binding protein 85a),DRSC14362,,,,6871,3.62e5,inactive
CG14647,DRSC12233,,,,10103,3.87e5,inactive
CG14647,DRSC22497,,,,3700,3.78e5,inactive
CG3038,DRSC18618,,,,5992,3.58e5,inactive
CG42729,DRSC10236,,,,6687,5.44e5,inactive
Amph (Amphiphysin),DRSC07578,,,,8250,4.70e5,inactive
Rack1 (Receptor of activated protein kinase C 1),DRSC03405,,,,5811,3.33e5,inactive
CG1172,DRSC12182,,,,6743,4.42e5,inactive
CG1172,DRSC21954,,,,9041,5.51e5,inactive
kuz (kuzbanian),DRSC03555,,,,8738,3.75e5,inactive
CG17919,DRSC12571,,,,9171,4.03e5,inactive
CG9062,DRSC07327,,,,5967,3.26e5,inactive
Hsc70-3 (Heat shock protein 70 cognate 3),DRSC20253,,,,4236,4.52e5,inactive
SkpE (SKP1-related E),DRSC19431,,,,6442,3.92e5,inactive
CG14864,DRSC14987,,,,7830,5.70e5,inactive
CG31157,DRSC21832,,,,8053,5.79e5,inactive
CG7182,DRSC10780,,,,8243,6.76e5,inactive
Ptr (Patched-related),DRSC04852,,,,6803,4.03e5,inactive
Ptr (Patched-related),DRSC21517,,,,8527,5.23e5,inactive
CG14984,DRSC08442,,,,6320,3.53e5,inactive
CG10257,DRSC05985,,,,6735,3.51e5,inactive
Psi (P-element somatic inhibitor),DRSC07519,-3,reporter ratio raised past the hit cutoff,reporter ratio raised past the hit cutoff,11690,2.95e5,active
CG1371,DRSC06409,,,,7794,4.07e5,inactive
CG32202,DRSC09989,,,,8305,4.62e5,inactive
QIL1,DRSC10888,,,,7711,3.38e5,inactive
CG15812,DRSC08479,,,,7410,3.94e5,inactive
CG13836 (retired record),DRSC14686,,,,6843,2.93e5,inactive
CG4372,DRSC04466,,,,6923,3.45e5,inactive
Dcp-1 (Death caspase-1),DRSC04609,,,,3.48e5,2.49e5,inactive
CG15577,DRSC18065,,,,7711,4.83e5,inactive

13 entries from above, arranged by “stable assay firefly, run 1 (luminescence)”, descending:
gene,dsRNA,siRNA reporter hit score,stable siRNA reporter change,miRNA reporter change,"stable assay Renilla, run 1 (luminescence)","stable assay firefly, run 1 (luminescence)",activity call
igl (igloo),DRSC07631,,,,15982,5.66e5,inactive
Edg91 (Ecdysone-dependent gene 91),DRSC16657,,,,6236,4.02e5,inactive
CG10405,DRSC14238,,,,7256,3.97e5,inactive
CG15905,DRSC06591,,,,6875,3.93e5,inactive
CG5174,DRSC06920,,,,9358,3.66e5,inactive
MAPk-Ak2 (MAP kinase activated protein-kinase-2),DRSC18678,,,,4928,3.65e5,inactive
CG12539,DRSC19470,,,,5686,3.51e5,inactive
CG30274,DRSC04171,,,,6047,3.49e5,inactive
TwdlG (TweedleG),DRSC12229,,,,7008,3.39e5,inactive
nrv3 (nervana 3),DRSC03097,,,,2515,3.16e5,inactive
Klp61F (Kinesin-like protein at 61F),DRSC08671,,,,7299,2.89e5,inactive
upd3 (unpaired 3),DRSC19636,,,,4023,2.65e5,inactive
Tbc1d22 (TBC1 domain family member 22),DRSC15867,,,,7859,2.51e5,inactive
